Reference: patent publication US5604098

What was measured:
[1] = target: Hpa II restriction endonuclease (UniProt P36433); experiment: enzyme reaction in vitro; settings: Hpa II* conditions, purified native protein, only the motif is given
[2] = system: CGase I (Taq I and Hpa II in combination); experiment: enzyme reaction in vitro; settings: CGase buffer, purified native protein, only the motif is given

Row | Sequence | activity on this sequence [1] | activity on this sequence [2] | activity on this sequence ([1]; 10 mM MgCl2, 15% DMSO, pH 8.5, 50 C) | activity on this sequence ([2]; Taq I 400 u and Hpa II 50 u per ug)
1 | CCGC (double strand) [CCGC (GCGG) site] | active | active | – | –
2 | ACGA (double strand) [ACGA site] | – | active | – | –
3 | CCGG (double strand) [CCGG site] | – | active | active | –
4 | GCGC (double strand) [GCGC site] | – | – | – | active
5 | TCGA (double strand) [TCGA site] | – | active | – | –
6 | GCGT (double strand) [GCGT site] | – | active | – | –
7 | ACGG (double strand) [ACGG (CCGT) site] | active | active | – | –
8 | CCGA (double strand) [CCGA (TCGG) site] | active | active | – | –

Construct, isoform or probe ends are uncertain for at least one entry.
